Laboratory results: article PMC11044963, “Probing the CRL4^DCAF12 interactions with MAGEA3 and CCT5 di-Glu C-terminal degrons” (PNAS Nexus, 2024)
No constants are given. Whether binding was seen depends on the method and setting. Some results given as binding are weak or reduced against the parent protein; the word gives no strength. For some assays here: Where a sequence is shown, tags or fusion partners need not be part of it.

Tests used:
[1] = biological target: T1, FITC-labeled control peptide derived from Histone H3 K9A mutant variant (H3K9A); experiment: fluorescence polarisation; direct binding; proteins titrated from 4 µM in two-fold dilutions against 20 nM N-terminally FITC-labeled peptide; 20 mM Tris pH 7.5, 150 mM NaCl, 5% glycerol, 0.5 mM TCEP, 0.01% Triton; 45 min at room temperature; both purified
T1 sequence (peptide, fluorescein isothiocyanate (FITC) on the N-terminus): ARTKQTARASTGGK

[2] = biological target: His-tagged DCAF12-FL (human) (UniProt Q5T6F0); experiment: cryo-EM structure; DDB1–DCAF12–MAGEA3 complex, co-expressed and co-purified; 0.2 mg/mL on grids; 3.17 Å map

Substance	binding [1]	binding [2]
DCAF12 (Δ1–78) (from UniProt Q5T6F0 79-453) (domain or fragment)	no binding (tested: 4 µM highest concentration)	
MAGEA3 212-amino acid construct (from UniProt P43357 104-314) (domain or fragment)		binds
